Earlier results as cited in patent US20150080468A1, “COMPOSITION AND METHOD FOR PROCESSING AND DELIVERING BIOAVAILABLE METHIONINE ANALOGS, DERIVATIVES, AND PRECURSORS, THEREOF” (QUALITY LIQUID FEEDS, priority 2013, published 2015).
At least one structure is not confirmed: it was looked up by name or label, or the drawing left a doubt.

Conditions: cited from earlier work

In the case of `CSCCC(O)C(=O)OC(C)C` (stereo not shown) [100% HMBi, isopropyl ester of 2-hydroxy-4-methylthiobutanoic acid], the Relative density is listed as 1.074 kg at 20° C./kg water at 4 °C.
